Assay results as given in patent US11624022B2, “Preparation method for the plant-based nano corrosion inhibition bactericide for oilfield and application thereof” (Southwest Petroleum University, priority 2021, dated 2023).
At least one compound was matched to its structure with a doubt left.

Tested on: sulfate reducing bacteria (SRB)
Assay: Sterilization performance test (serial dilution counting of SRB)
Format: cell-based
Design: Vial 1 Level 0 / Vial 2 Level 1 / Vial 3 Level 2 / Vial 4 Level 3 / Vial 5 Level 4 / Vial 6 Level 5: key to the marks not given beside the values
Conditions: 60 mg/L, counted 24 hours later
Description: Before the test, all devices and glass containers were sterilized for 20 min at 121° C. The SRB strain was isolated from the formation water of an injection well in a shale gas field in China. SRB liquid medium was prepared according to NACE TMO194-94 standard.
The composition of the medium is as follows: Ig yeast powder, 0.1 g ascorbic acid, 0.2 g MgSO4·7H2O, 0.01 g K2HPO4, 10 g NaCl, 0.2 g (NH4)2Fe(SO4)2·6H2O, 4 mL sodium lactate, and 1000 mL deionized water. A portable pressure steam disinfection pot was used to sterilize the bacteria in the prepared medium. In the sterilization process, the temperature was kept at 120° C. for 15 min. It was then deoxidized with N2 for 2 h. 10% SRB was inoculated into the medium and placed in an incubator at 37° C. After 5 days, the number of SRB reached the peak value and remained stable.
Different bactericides were added into the cultured bacteria solution of 200 mL and counted 24 hours later.
Serial dilution method (triple repetition) was taken for the counting of SRB. Totally 10 dilution levels were provided. At each dilution level, there were three identical vials filled with 9 mL SRB medium. The measured sample of 1 mL was injected into a vial at the Level 0 and then shaken up. The 1 mL solution from the vial at the Level 0 was injected into a vial at the Level 1. The syringe for sampling the liquid each time was disposable to avoid affecting the final results. Similarly, the sample was diluted until the dilution reached Level 9. All vials were incubated at 35° C. for 14 days at a constant temperature.
The growth index should be determined according to the following principles: three dilution levels were selected from the dilution level at which negative vials appeared, and the number of positive vials was counted for each dilution level to obtain the index (When all the vials in a certain grade are negative, the previous grade is counted). The growth index (summarized according to 5.6.5.3 in SY/T 5329-1994) is obtained by multiplying the dilution factor 10^n of water sample (n is the number of dilutions before the index position). Check the corresponding bacteria count table and substitute the bacterial count detected by the index to get the content of this kind of bacteria in the water sample (Nr./mL).
The test results are shown in Table 1, in which the vials 1 to 10 are filled with 9 mL SRB medium (10^7). The dilution levels are numbered from Lev. 0 to Lev. 9. Take the measured sample of 1 mL into the Vial 1, indicating Level 0; take a new syringe and take 1 mL from Vial 1 to Vial 2, indicating Level 1; take a new syringe and take 1 mL from Vial 2 to Vial 3, indicating […]; the rest can be done in the same manner until 1 mL is taken from Vial 9 to Vial 10, indicating Level 9. “+” represents positive vial, and “−” represents negative vial.

CCCCCCCCCCCC[N+](C)(C)Cc1ccccc1.[Cl-] [Traditional bactericide 1227]
Vial 1 Level 0 (dilution Level 0, three vials): +++
Vial 2 Level 1 (dilution Level 1, three vials): +++
Vial 3 Level 2 (dilution Level 2, three vials): +++
Vial 4 Level 3 (dilution Level 3, three vials): +++
Vial 5 Level 4 (dilution Level 4, three vials): +++
Vial 6 Level 5 (dilution Level 5, three vials): +++
Vial 7 Level 6 (dilution Level 6, three vials): ++−
Vial 8 Level 7 (dilution Level 7, three vials): +−−
